The record followed here is article doi:10.1101/713511.

One series has as its system SERF1a (human). The experiment in a line: FRET RNA annealing. The note with it: Kobs 0.062 s-1 vs 0.0056 s-1 without protein.
Another series deals with SERF1a K17E (human). The experiment in a line: FRET RNA annealing. Particulars: Kobs 0.033 s-1; recombinant protein; label: Cy3 and Cy5.

Construct, isoform or probe ends are uncertain for at least one entry. For some assays here: A weaker result is weaker than the reference pair of the same experiment. At least one verdict was read from the data and is not stated in words by the source.

Consider “ACUGCUAGAGAUUUUCCACAU / AUGUGGAAAAUCUCUAGCAGU [Cy3-R21(-) + Cy5-R21(+) annealing pair]”, for which the binding result in the series on SERF1a (human) is listed as “binds”; with SERF1a K17E (human) it was “binds more weakly”.
